{
  "source": "PubChem BioAssay AID1347076",
  "about": "(National Center for Advancing Translational Sciences (NCATS), 2019)",
  "note": "The campaign covered roughly 400,000 compounds. About 13,000 (3.2%) were called active. Inconclusive results, whose numbers are uncertain, are shown with a selection of clear calls. Calls come from the whole dose curve; as a rule, active = well fitted cell-killing curve with a large enough effect; inconclusive = small, poorly fitted or top-dose-only effect, or effect the other way; inactive = flat fitted curve, though single readings scatter. A potency beside an inconclusive call is a rough fit, not a confirmed value. % is set by controls: 0 for no effect and ±100 for the full control effect; potency is the fitted concentration of half-maximal effect.",
  "data": [
    {"test": "qHTS assay for MDR1-selective chemotherapeutics: Primary screen using the drug-selected MDR subline cells KB-V1; note: nearly all actives have a fitted effect of over 60% in size", "settings": "KB-V1 MDR cells viability, CellTiter-Glo, 72 h; activity change, negative = cytotoxicity: at 46.1 µM (top of the series)", "how_it_was_run": "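Compound-treated KB-V1 multidrug-resistant cells, 72 h, 37 degrees C; viability by CellTiter-Glo. Fitted qHTS curves give the values.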", "values": [
      {"compound": "COc1ccc(C(=O)N/N=C/c2ccc3cccc(O)c3n2)cc1", "Potency": "inconclusive: 29.1 µM [cytotoxic, single point]"},
      {"compound": "O=C1CCCC2=C1C(c1ccc(O)c(O)c1)Nc1ccc3ccccc3c12", "note": "(stereo not given)", "Potency": "inconclusive: 25.9 µM [rising, partial curve, poor fit]"},
      {"compound": "CCOC(=O)c1c(SCC(=O)Nc2nc3ccc(C)cc3s2)nc(=O)[nH]c1C", "Potency": "inconclusive: 4.61 µM [rising, full curve, poor fit]"},
      {"compound": "Cc1nc(-c2cccc(NC(=O)C3CCCCC3)c2)cs1", "activity change, negative = cytotoxicity": "inactive: -21.4%"},
      {"compound": "COc1ccc(C2CC(C(F)(F)F)n3nc(C(=O)O)c(Br)c3N2)cc1", "note": "(stereo not given)", "activity change, negative = cytotoxicity": "inactive: -4.97%"},
      {"compound": "CCn1c(=O)[nH]c(=O)c2c(N)c(C(=O)c3ccccc3OC)sc21", "Potency": "active: 23.1 µM"},
      {"compound": "O=C(Nc1ccc(F)cc1F)c1ccc2nc(N3CCOCC3)sc2c1", "Potency": "inconclusive: 25.9 µM [cytotoxic, single point]"},
      {"compound": "O=C(N1CCCCCC1)N1CCN(S(=O)(=O)c2ccccc2)CC1", "Potency": "inconclusive: 7.31 µM [cytotoxic, partial curve]"},
      {"compound": "CCOc1cc(N2CCOCC2)c(OCC)cc1NC(=O)c1nn(CC)c(=O)c2ccccc12", "Potency": "active: 3.66 µM"},
      {"compound": "c1ccc(Cn2ncc3c(NCc4ccco4)ncnc32)cc1", "activity change, negative = cytotoxicity": "inactive: -0.419%"},
      {"compound": "N#Cc1c(-c2ccccc2)[nH]c(=O)[nH]c1=O", "activity change, negative = cytotoxicity": "inactive: 5.68%"},
      {"compound": "Cc1nn(C)c(C(=O)Sc2ccccc2)c1[N+](=O)[O-]", "activity change, negative = cytotoxicity": "inactive: 9.11%"},
      {"compound": "O=C(Nc1ccc2c(c1)OCCO2)c1ccc(Cl)c(S(=O)(=O)N2CCOCC2)c1", "Potency": "inconclusive: 29.1 µM [cytotoxic, single point]"},
      {"compound": "COc1ccccc1C=NNC(=O)NN=Cc1ccccc1OC", "activity change, negative = cytotoxicity": "inactive: -4.37%"},
      {"compound": "COc1ccccc1OCC(=O)Nc1ccc(Cl)cc1", "activity change, negative = cytotoxicity": "inconclusive: -70.2%"},
      {"compound": "CC(C)n1cnc2c(NCc3ccccc3)cc(N[C@H](C)CO)cc21", "activity change, negative = cytotoxicity": "inactive: 0%"},
      {"compound": "COc1ccc(-c2nc(C(N)=O)c3[nH]c(=O)n(-c4cccc(C)c4)c3n2)c(OC)c1", "Potency": "inconclusive: 23.1 µM [cytotoxic, single point]"},
      {"compound": "Nc1ccc(C(=O)NCC(=O)O)cc1", "activity change, negative = cytotoxicity": "inactive: 15.8%"},
      {"compound": "NC(=S)N/N=C/c1ccc(-c2ccc(Cl)c(Cl)c2)o1", "activity change, negative = cytotoxicity": "inactive: 0%"},
      {"compound": "Cc1ccsc1C(=O)N(C)CC(=O)N(CC(C)C)c1c(N)n(CC(C)C)c(=O)[nH]c1=O", "Potency": "inconclusive: 16.4 µM [rising, partial curve, poor fit]"},
      {"compound": "COc1cc([N+](=O)[O-])ccc1N/C=C/C(=O)c1cccs1", "Potency": "active: 3.26 µM"},
      {"compound": "CCCCN(Cc1ccccc1)C1CCN(Cc2ccccc2)CC1", "activity change, negative = cytotoxicity": "inactive: 0%"},
      {"compound": "CCC(=O)N1CCc2cc(Br)cc(S(=O)(=O)N3CCCC(C(=O)NC(C)(C)C)C3)c21", "note": "(stereo not given)", "Potency": "inconclusive: 29.1 µM [cytotoxic, partial curve, poor fit]"},
      {"compound": "CCOC(=O)c1ccc(S(=O)(=O)NNC(=O)Cc2csc(C)n2)cc1", "Potency": "inconclusive: 23.1 µM [rising, single point]"},
      {"compound": "C=C(C)C(=O)N1CC2(CC(c3cccc(NC(=O)c4ccccc4)c3)=NO2)C[C@@H]1C(N)=O", "note": "(stereo not given in full)", "Potency": "inconclusive: 29.1 µM [rising, single point]"},
      {"compound": "CCC/C=C/c1ccc(CN2C(CC(C)C)C(=O)N(Cc3cn(CC4CCCCC4)nn3)CCS2(=O)=O)cc1", "note": "(stereo not given)", "Potency": "inconclusive: 5.8 µM [rising, full curve, poor fit]"},
      {"compound": "Cc1ccc(S(=O)(=O)N(C)CCCC(=O)Nc2ccc(C)cc2C)cc1", "Potency": "active: 20.6 µM"},
      {"compound": "Cc1ccc(S(=O)(=O)N2CCN(C(=O)Cn3nc(C)c([N+](=O)[O-])c3C)CC2)c(C)c1", "Potency": "inconclusive: 10.3 µM [cytotoxic, partial curve]"},
      {"compound": "O=C(NCCc1ccc(Cl)cc1)c1cc(-c2ccccn2)nc2ccccc12", "Potency": "inconclusive: 20.6 µM [cytotoxic, single point]"},
      {"compound": "CCOCCc1nn2c(=O)cc(COC(=O)c3ccccc3NC(=O)c3cccs3)nc2s1", "activity change, negative = cytotoxicity": "inactive: -4.07%"},
      {"compound": "COc1c(C)cccc1C(=O)Nc1ccc(OCC(=O)N2CCOCC2)cc1C", "Potency": "inconclusive: 20.6 µM [cytotoxic, single point]"},
      {"compound": "COc1ccc(Cc2nnc(SCC(=O)N(C)CC(=O)Nc3ccc(C)cc3)o2)cc1", "Potency": "inconclusive: 14.6 µM [cytotoxic, single point]"},
      {"compound": "COc1ccc(/C=N/NC(=O)c2ccoc2C)cc1COc1c(C)cccc1C", "Potency": "inconclusive: 11.6 µM [cytotoxic, partial curve, poor fit]"},
      {"compound": "O=C1CSC(c2ccc(Cl)cc2)N1C1CCCCC1", "note": "(stereo not given)", "Potency": "inconclusive: 16.4 µM [cytotoxic, partial curve]"},
      {"compound": "CNc1nc(Nc2ccc(C)c(Cl)c2)c2cnn(C)c2n1", "Potency": "inconclusive: 18.4 µM [cytotoxic, single point]"},
      {"compound": "CCc1nc(Sc2nc(C)cc(C)n2)c2oc3ccccc3c2n1", "Potency": "active: 16.4 µM"},
      {"compound": "COc1ccc(N2CCN(C(=O)c3c(C)nn(-c4ccc(F)cc4)c3-n3cccc3)CC2)cc1", "Potency": "inconclusive: 13 µM [cytotoxic, partial curve]"},
      {"compound": "O=C(Nc1cccc(Br)c1)c1cccc(OC(=S)N2CCOCC2)c1", "Potency": "inconclusive: 16.4 µM [cytotoxic, partial curve]"},
      {"compound": "CCNC(=O)N(C)C[C@H]1N[C@@](C)(C(=O)OC)[C@H]2C(=O)N(C)C(=O)[C@@H]12", "Potency": "inconclusive: 23.1 µM [rising, single point]"},
      {"compound": "C=CC(=O)N=c1sc2ccccc2n1-c1ccccc1", "Potency": "active: 7.31 µM"},
      {"compound": "Cc1[nH]n(-c2ccccc2)c(=O)c1/C=N/NC(=O)c1cccc(F)c1", "Potency": "inconclusive: 1.46 µM [cytotoxic, full curve]"},
      {"compound": "CN(C(=S)NC(=O)c1ccccc1Br)C1CCCCC1", "Potency": "inconclusive: 18.4 µM [cytotoxic, single point]"},
      {"compound": "CC(=O)c1cc(CN2CCC(C(=O)Nc3ccc(-n4nc(C)cc4C)cc3)CC2)cs1", "Potency": "inconclusive: 10.3 µM [cytotoxic, partial curve]"},
      {"compound": "COc1cccc(CN2C(=O)C3(SCC(=O)N3c3ccc(F)cc3)c3ccccc32)c1", "note": "(stereo not given)", "Potency": "inconclusive: 18.4 µM [cytotoxic, partial curve]"},
      {"compound": "COc1ccc(NC(=O)C2CCCN2C(=O)Oc2ccccc2)cc1", "note": "(stereo not given)", "Potency": "inconclusive: 18.4 µM [rising, partial curve, poor fit]"}
    ]}
  ]
}
